# Assay results

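Luminescence from an EWS-FLI1 target-promoter (NR0B1) reporter, set against a CMV-promoter reporter, two days after silencing single genes in TC32 Ewing sarcoma cells.
Each siRNA was applied at 20 nM.
A z-score of the log NR0B1-over-CMV signal, less the median of siRNAs with the same seed; more negative means a stronger specific loss of the NR0B1 reporter.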

The strongest results of the screen are mostly left out here.
Sequences are the guide (antisense) strand, without overhang.

| # | Sequence | gene | seed-corrected z-score |
|---|---|---|---|
| 1 | `UAAGUACCCAGAAAAGGCG` | TMEM203 | 1.499 |
| 2 | `UGAUGAAGUAGGAUGGAUG` | ZNF667 | 0.4521 |
| 3 | `UUGGUGACGACUGGGUUUU` | RNF113B | 0.2165 |
| 4 | `UUCUCGUCGAGGAAAGCGU` | OPRD1 | -0.92 |
| 5 | `UAUGUUGUUAUCGAAAUCC` | INSIG2 | -0.0593 |
| 6 | `UCACUGUUAAAUCUUGGAC` | GRPEL2 | 0.5702 |
| 7 | `AAUGUAUCAAGAAUCUCUC` | DENND1B | -0.04804 |
| 8 | `AUGGAUAAUAUGGUGGUUG` | KIAA0907 | -0.9888 |
| 9 | `AUAACGACAAUGUCCUUCC` | PRSS54 | -0.1538 |
| 10 | `UCAGGACUCAGAACCCGGU` | LOC339059 | -0.2999 |
| 11 | `UCAUGGUCAAUGUUAACAU` | ASB11 | 1.004 |
| 12 | `UAGCCGUCGAGCUUGAUCU` | EHD4 | 0.4279 |
| 13 | `AAUCUGUAUAUCUCAUUUC` | MALSU1 | -0.7047 |
| 14 | `UGUCGGACAAGGAUUCCAG` | C20orf96 | -0.26 |
| 15 | `AUCACUGUCAUGUUGGUUC` | SSMEM1 | 0.371 |
| 16 | `UCUGUGGUCAGCUUAAAGG` | PI4KB | -0.8415 |
| 17 | `UUACCACCACUGUACGUCC` | ABCA3 | 0.03368 |
| 18 | `AUCGAUUCAGCUUCAACAC` | KBTBD8 | 0.5372 |
| 19 | `GCAGGUGCAUUCACUGUCC` | FAM25E | -0.2287 |
| 20 | `UCAUAUACCAUCUCUCGGU` | SUPT4H1 | -0.6466 |
| 21 | `AAGCUAACAGGACUUCACG` | MRPS16 | -0.8604 |
| 22 | `UGAUAAGUUUGGUGUAUGC` | EXOC1 | -0.149 |
| 23 | `AAGUAUAUCAACAUAAGGC` | ADK | -0.533 |
| 24 | `AUUGGUUGCACAGCUCAGG` | SLC12A8 | 0.4259 |
| 25 | `UAAGUGAUAACCGAGGCAG` | ZBTB4 | 1.413 |
| 26 | `AAAACUUGUAGAGAAGUUC` | C7orf69 | 0.1027 |
| 27 | `UGAGGAUCAUGCGUGUCAC` | GALR2 | -0.6771 |
| 28 | `UUCGCUACAGACAUUCUCC` | KNTC1 | 0.6504 |
| 29 | `AUCUUUACCAGGUUGAAGG` | PNPLA2 | 0.5124 |
| 30 | `UACACGAAAAUGUCAUCCC` | USP4 | 0.1799 |
| 31 | `UGCUUAUACACCACGUUGU` | GDF5 | -0.1782 |
| 32 | `UCCUUUCCCGGAUGAAUUC` | GAS7 | 0.1898 |
| 33 | `UCACUUACAGAAUACGAUC` | ADGRB3 | -1.736 |
| 34 | `UUUCUUAUCUCCGUGAAUG` | ALDH1L1 | 0.04432 |
| 35 | `UUCAUUCUCAAUAACAAGG` | LPA | 0.07439 |
| 36 | `UGCUAUUCCUUUUAUACUC` | NPAP1 | -0.1295 |
| 37 | `ACAUGUCCCACAGGUGCAG` | LOC729562 | -0.7661 |
| 38 | `UCUUUAUCUAUACUCAAGC` | PAM | -0.2267 |
| 39 | `AAUAGAUCUAGUGCGGAGC` | STK24 | -0.8426 |
| 40 | `AAAGGUCUGAAAUCAUACA` | C3orf70 | 0.1278 |
| 41 | `UUUCACAUCAUACCAAUCU` | RPS3A | 2.131 |
| 42 | `UAUCUUUAACGAUGCUCUC` | TRAF3 | -0.2132 |
| 43 | `UUGGGUAACAGAUCUGUUA` | RFT1 | -1.982 |
| 44 | `UACCAGUUUAGCACGAAGC` | PDCD1 | -0.203 |
| 45 | `UGCGGAGUCAGAACACUCG` | CNTD2 | -0.1532 |
| 46 | `UGAGGUGACUGGGCAAAGG` | CDCA4 | -0.2894 |
| 47 | `UUUCUCGCUGGUGUAGUCC` | IQSEC1 | -0.06329 |
| 48 | `AUCAUUAUCCGAGUUCUUG` | IL2RG | -0.1191 |
| 49 | `UUCGCUCUAAUUCCUCUGC` | CWC25 | -0.7186 |
| 50 | `UUAGCAGAUAUAACACGCC` | AFAP1 | 0.2655 |
| 51 | `UUCGAUUUAUAUUACAGCC` | CENPE | -0.1032 |
| 52 | `UUAGGAACCAGUAGCCGUC` | DLGAP4 | 1.247 |
| 53 | `UAUCAUAUCCUUGCGAUUC` | MSH2 | -0.2098 |
| 54 | `ACAGAUGCUAUAAUUGAAC` | SEPT7P2 | 0.03465 |
| 55 | `AUAAUUCACCCAGUAAGCC` | CARD17 | 0.6916 |
| 56 | `UACCGCAUCAAUCUUUUCC` | MMP2 | -0.547 |
| 57 | `AUCGGGCUCAUACACCUCC` | BIN1 | 0.779 |
| 58 | `UCUGUAACAAGAUUCAGGG` | PRICKLE1 | 0.1105 |
| 59 | `UACCCGCAAGUAUAUGUCC` | IARS | -0.06052 |
| 60 | `UAAGGGACAGCUGCCUCAG` | LRRC29 | -0.5205 |
| 61 | `UAAGGUACCAGUAGAAAUG` | RPS10 | 2.017 |
| 62 | `AAAAUUCUUAGGCCUUUUC` | RPL7AP27 | -1.46 |
| 63 | `UCAGCUCAAAACAUGUUCC` | ZFAND4 | -0.003513 |
| 64 | `AUAUUUCACCUUUAACGGA` | LOC729047 | -1.261 |
| 65 | `UCUUGACUGAACCUGAUCC` | CLEC4E | -0.7932 |
| 66 | `UUCGCCCUCGGAGAUGUUG` | SEZ6L2 | 0.2626 |
| 67 | `UCAGUUUCAGGAUCAGUGC` | HERPUD1 | -0.2212 |
| 68 | `UGAUCUGUCGGUAUCAGUG` | CNTNAP5 | -0.4886 |
| 69 | `AAGAGUCGCAAGAUGGUCC` | PEX11G | -0.5467 |
| 70 | `UUCUAGUCCUGAAGUAUCC` | PNN | -0.1712 |
| 71 | `AUCUCGAAGAUGUAGUUCC` | NRROS | 0.06883 |

Repeated from the top, 7 entries:

| Sequence | gene | seed-corrected z-score |
|---|---|---|
| `UAAGUACCCAGAAAAGGCG` | TMEM203 | 1.499 |
| `UGAUGAAGUAGGAUGGAUG` | ZNF667 | 0.4521 |
| `UUGGUGACGACUGGGUUUU` | RNF113B | 0.2165 |
| `UUCUCGUCGAGGAAAGCGU` | OPRD1 | -0.92 |
| `UAUGUUGUUAUCGAAAUCC` | INSIG2 | -0.0593 |
| `UCACUGUUAAAUCUUGGAC` | GRPEL2 | 0.5702 |
| `AAUGUAUCAAGAAUCUCUC` | DENND1B | -0.04804 |

From PubChem BioAssay record AID1159506 (NCATS, 2015).